# Assay results published in the supplement of paper PMC11546906.
# Counter-ions that a name gives are not always drawn. Some of the results follow. Repeats in this data set agree poorly, so a single value says little.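 Screen of FDA-approved drugs, each combined with colistin at one-eighth of its MIC, against a multidrug-resistant mcr-1-positive clinical E. coli isolate; growth read as OD600 after 24 h. Bacteria without drug were the growth control and plain broth the blank. A combination counted as active when OD600 fell below 0.2.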
# Tested on: Escherichia coli 42 (mcr-1-positive clinical isolate)
# Assay: OD600 after 24 h growth with compound plus colistin (absorbance units (OD600)); higher = more bacterial growth (less inhibition)
# Settings: first compound 25 µM; colistin concentration 0.5 ug/mL; incubation time 24 h; 37 °C
row,SMILES,OD600
1,Cc1ncc(C[n+]2csc(CCO)c2C)c(N)n1 [Thiamine hydrochloride] + CCC(C)CCCC(=O)N[C@@H](CCN)C(=O)N[C@H](C(=O)N[C@@H](CCN)C(=O)N[C@H]1CCNC(=O)[C@H]([C@@H](C)O)NC(=O)[C@H](CCN)NC(=O)[C@H](CCN)NC(=O)[C@H](CC(C)C)NC(=O)[C@@H](CC(C)C)NC(=O)[C@H](CCN)NC1=O)[C@@H](C)O [colistin],inactive: 1.35
2,CCCCCCCCCCCCCCCCCCCCCCO [1-Docosanol] + CCC(C)CCCC(=O)N[C@@H](CCN)C(=O)N[C@H](C(=O)N[C@@H](CCN)C(=O)N[C@H]1CCNC(=O)[C@H]([C@@H](C)O)NC(=O)[C@H](CCN)NC(=O)[C@H](CCN)NC(=O)[C@H](CC(C)C)NC(=O)[C@@H](CC(C)C)NC(=O)[C@H](CCN)NC1=O)[C@@H](C)O [colistin],inactive: 1.01
3,O=C(O)CCc1nc(-c2ccccc2)c(-c2ccccc2)o1 [Oxaprozin] + CCC(C)CCCC(=O)N[C@@H](CCN)C(=O)N[C@H](C(=O)N[C@@H](CCN)C(=O)N[C@H]1CCNC(=O)[C@H]([C@@H](C)O)NC(=O)[C@H](CCN)NC(=O)[C@H](CCN)NC(=O)[C@H](CC(C)C)NC(=O)[C@@H](CC(C)C)NC(=O)[C@H](CCN)NC1=O)[C@@H](C)O [colistin],inactive: 1.15
4,CC(C)(O)c1ccccc1CC[C@@H](SCC1(CC(=O)O)CC1)c1cccc(/C=C/c2ccc3ccc(Cl)cc3n2)c1 [Montelukast sodium] + CCC(C)CCCC(=O)N[C@@H](CCN)C(=O)N[C@H](C(=O)N[C@@H](CCN)C(=O)N[C@H]1CCNC(=O)[C@H]([C@@H](C)O)NC(=O)[C@H](CCN)NC(=O)[C@H](CCN)NC(=O)[C@H](CC(C)C)NC(=O)[C@@H](CC(C)C)NC(=O)[C@H](CCN)NC1=O)[C@@H](C)O [colistin],inactive: 1.04
5,CC[C@@H]1C(=O)OC[C@@H]1Cc1cncn1C [Pilocarpine Hydrochloride] + CCC(C)CCCC(=O)N[C@@H](CCN)C(=O)N[C@H](C(=O)N[C@@H](CCN)C(=O)N[C@H]1CCNC(=O)[C@H]([C@@H](C)O)NC(=O)[C@H](CCN)NC(=O)[C@H](CCN)NC(=O)[C@H](CC(C)C)NC(=O)[C@@H](CC(C)C)NC(=O)[C@H](CCN)NC1=O)[C@@H](C)O [colistin],inactive: 0.988
6,Cc1c(O)c(=O)ccn1C [Deferiprone] + CCC(C)CCCC(=O)N[C@@H](CCN)C(=O)N[C@H](C(=O)N[C@@H](CCN)C(=O)N[C@H]1CCNC(=O)[C@H]([C@@H](C)O)NC(=O)[C@H](CCN)NC(=O)[C@H](CCN)NC(=O)[C@H](CC(C)C)NC(=O)[C@@H](CC(C)C)NC(=O)[C@H](CCN)NC1=O)[C@@H](C)O [colistin],inactive: 1.04
7,CC(=O)O[C@@]12CO[C@@H]1C[C@H](O)[C@@]1(C)C(=O)[C@H](O)C3=C(C)[C@@H](OC(=O)[C@H](O)[C@@H](NC(=O)OC(C)(C)C)c4ccccc4)C[C@@](O)([C@@H](OC(=O)c4ccccc4)[C@H]21)C3(C)C [Docetaxel trihydrate] + CCC(C)CCCC(=O)N[C@@H](CCN)C(=O)N[C@H](C(=O)N[C@@H](CCN)C(=O)N[C@H]1CCNC(=O)[C@H]([C@@H](C)O)NC(=O)[C@H](CCN)NC(=O)[C@H](CCN)NC(=O)[C@H](CC(C)C)NC(=O)[C@@H](CC(C)C)NC(=O)[C@H](CCN)NC1=O)[C@@H](C)O [colistin],inactive: 1.04
8,CC(C)C[C@H](NC(=O)CNC(=O)c1cc(Cl)ccc1Cl)B1OC(=O)CC(CC(=O)O)(C(=O)O)O1 (some centres undefined) + CCC(C)CCCC(=O)N[C@@H](CCN)C(=O)N[C@H](C(=O)N[C@@H](CCN)C(=O)N[C@H]1CCNC(=O)[C@H]([C@@H](C)O)NC(=O)[C@H](CCN)NC(=O)[C@H](CCN)NC(=O)[C@H](CC(C)C)NC(=O)[C@@H](CC(C)C)NC(=O)[C@H](CCN)NC1=O)[C@@H](C)O [colistin],inactive: 0.964
9,Nc1nc(Cl)nc2c1ncn2[C@H]1C[C@H](O)[C@@H](CO)O1 [Cladribine] + CCC(C)CCCC(=O)N[C@@H](CCN)C(=O)N[C@H](C(=O)N[C@@H](CCN)C(=O)N[C@H]1CCNC(=O)[C@H]([C@@H](C)O)NC(=O)[C@H](CCN)NC(=O)[C@H](CCN)NC(=O)[C@H](CC(C)C)NC(=O)[C@@H](CC(C)C)NC(=O)[C@H](CCN)NC1=O)[C@@H](C)O [colistin],inactive: 0.949

# Records 3 through 4 of the list above:
row,SMILES,OD600
3,O=C(O)CCc1nc(-c2ccccc2)c(-c2ccccc2)o1 [Oxaprozin] + CCC(C)CCCC(=O)N[C@@H](CCN)C(=O)N[C@H](C(=O)N[C@@H](CCN)C(=O)N[C@H]1CCNC(=O)[C@H]([C@@H](C)O)NC(=O)[C@H](CCN)NC(=O)[C@H](CCN)NC(=O)[C@H](CC(C)C)NC(=O)[C@@H](CC(C)C)NC(=O)[C@H](CCN)NC1=O)[C@@H](C)O [colistin],inactive: 1.15
4,CC(C)(O)c1ccccc1CC[C@@H](SCC1(CC(=O)O)CC1)c1cccc(/C=C/c2ccc3ccc(Cl)cc3n2)c1 [Montelukast sodium] + CCC(C)CCCC(=O)N[C@@H](CCN)C(=O)N[C@H](C(=O)N[C@@H](CCN)C(=O)N[C@H]1CCNC(=O)[C@H]([C@@H](C)O)NC(=O)[C@H](CCN)NC(=O)[C@H](CCN)NC(=O)[C@H](CC(C)C)NC(=O)[C@@H](CC(C)C)NC(=O)[C@H](CCN)NC1=O)[C@@H](C)O [colistin],inactive: 1.04
